Assay results as given in article PMC5691159 (Nature Communications, 2017).
Results are given in words; binding and its absence hold for the method and conditions named. Binding can be weak; no strength is given. Tags and fused reporters may be left off the sequences shown. For part of these data: In cells and extracts the contact can be indirect.

Legend:
[1] = target: T1, recombinant PfRhopH3-C protein (aa 617–865) with C-terminal hexa-Histidine tag (P. falciparum) (UniProt Q8I395); assay: ELISA; bait protein coated overnight at 200 ng in carbonate/bicarbonate buffer pH 9.6; prey protein 100, 200, 400, 800 ng in 100 µl binding buffer (50 mM HEPES, 250 mM potassium acetate, 5 mM magnesium acetate, pH 8.0), 1 h at 37 °C; prey detected by antibody; both purified
T1 sequence: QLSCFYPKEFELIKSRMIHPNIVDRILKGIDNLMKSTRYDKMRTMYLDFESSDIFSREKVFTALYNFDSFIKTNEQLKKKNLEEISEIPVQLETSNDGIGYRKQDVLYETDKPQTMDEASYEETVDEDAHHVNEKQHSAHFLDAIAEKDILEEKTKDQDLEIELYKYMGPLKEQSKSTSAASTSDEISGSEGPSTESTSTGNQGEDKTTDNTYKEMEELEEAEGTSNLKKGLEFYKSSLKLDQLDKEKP

[2] = target: T1, recombinant PfRhopH3-C protein (aa 617–865) with C-terminal hexa-Histidine tag (P. falciparum); assay: far-Western, overlay or dot blot; bait protein (2 µg) run on 12% SDS-PAGE, transferred to PVDF, denatured and renatured; prey protein 3 µg/mL in binding buffer (100 mM NaCl, 20 mM Tris pH 7.6, 0.5 mM EDTA, 10% glycerol, 0.1% Tween-20, 2% skim milk, 1 mM DTT), 2 h at RT; both purified
[3] = target: recombinant Cyclophilin B (Sino Biological) (human); assay: ELISA; ELISA-based inhibition assay with CsA as inhibitor; both purified
[4] = target: recombinant Cyclophilin B (Sino Biological) (human); assay: ELISA; ELISA-based inhibition assay: Cyclophilin B coated wells incubated with different concentrations of recombinant CDP3, then binding of the partner; both purified
[5] = target: recombinant Cyclophilin B (Sino Biological) (human); assay: co-IP; Pierce Co-IP kit: antibody against the bait protein immobilised on coupling resin; mixture of bait and prey (PfRhopH3-C) proteins, 8 µg each, up to 4 h at 4 °C; prey detected by western blot; both purified
[6] = target: recombinant Cyclophilin B (Sino Biological) (human); assay: ELISA; bait protein coated overnight at 200 ng in carbonate/bicarbonate buffer pH 9.6; prey protein 100, 200, 400, 800 ng in 100 µl binding buffer (50 mM HEPES, 250 mM potassium acetate, 5 mM magnesium acetate, pH 8.0), 1 h at 37 °C; prey detected by antibody; both purified

Measured: binding

recombinant Cyclophilin B (Sino Biological) (human)
binds: [1] | [2]

B1: recombinant PfRhopH3-C protein (aa 617–865) with C-terminal hexa-Histidine tag (domain or fragment)
chain: T1 sequence
binds: [3] | [4] | [5] | [6]
